# Measurements reported in the supplement of paper PMC9549374.
# The other results are listed elsewhere or left out. No stated cut-off is given here; in the data, active = 2-fold of DMSO or more and inactive = the rest. Single values of this set are uncertain. Some low values are a fixed figure set by the source, not a measured ratio.
# Tested on: CM7/1-hgem mouse ES cell-derived cardiomyocytes
# Experiment: maximal number of mAG-hGem(1/110)-positive cardiomyocytes over 96 h, fold-change vs DMSO; higher = more cardiomyocyte cell cycle activity
# Settings: 1 µM; 96 (max over 12 h time points) h
row,SMILES,maximal number
1,C=CC1=C(C)/C(=C/c2[nH]c(Cc3[nH]c(/C=C4\NC(=O)C(C)=C4C=C)c(C)c3CCC(=O)O)c(CCC(=O)O)c2C)NC1=O,inactive: 1
2,C=C1CC[C@H](O)C/C1=C/C=C1\CCC[C@]2(C)[C@@H]([C@H](C)CCCC(C)C)CC[C@@H]12,inactive: 1
3,CNC(=O)c1c(I)c(NC(C)=O)c(I)c(C(=O)O)c1I,inactive: 1
4,CCN(CC)C(=O)C1(c2ccccc2)CC1CN (centres undefined),inactive: 1
5,C=C[C@]1(C)C[C@@H](OC(=O)CS[C@@H]2C[C@H]3CC[C@@H](C2)N3C)[C@]2(C)[C@H](C)CC[C@]3(CCC(=O)[C@H]32)[C@@H](C)[C@@H]1O,inactive: 1
6,N#CCC(=O)NN,inactive: 1
7,CCCCC[C@H](CC(=O)NO)C(=O)N[C@H](C(=O)N1CCC[C@H]1CO)C(C)C,inactive: 1
8,O=C(NCC(O)CO)c1c(I)c(C(=O)NCC(O)CO)c(I)c(N(CCO)C(=O)CO)c1I (centres undefined),inactive: 0.5
9,CC1(C)CC2C1CCC1(C)OC2(C)CCC1O (centres undefined),inactive: 1
10,COc1ccc(-c2coc3cc(O)ccc3c2=O)cc1,inactive: 1
11,C[C@]12CCC(=O)C=C1CC[C@@H]1[C@@H]2[C@@H](O)C[C@@]2(C)[C@H]1CC[C@]2(O)C(=O)CO,inactive: 1
12,COC(=O)c1c(C)c2c(c(C)c1O)OC(=O)c1c(C)c(Cl)c(O)c(Cl)c1O2,inactive: 1
13,COc1ccc2c(=O)c(CC(=O)O)coc2c1,inactive: 1
14,CCCCCC(=O)Cc1cc(O)cc(O)c1C(=O)Oc1cc(CC(=O)CCCCC)c(C(=O)O)c(OC)c1,inactive: 0

# Taken from the entries so far for reference:
row,SMILES,maximal number
8,O=C(NCC(O)CO)c1c(I)c(C(=O)NCC(O)CO)c(I)c(N(CCO)C(=O)CO)c1I (centres undefined),inactive: 0.5
9,CC1(C)CC2C1CCC1(C)OC2(C)CCC1O (centres undefined),inactive: 1
